PubChem BioAssay AID1259300, Sanger Institute – 2017
Purpose: 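Which knock-downs harm HCT15 alone or synergise with the drugs BYL719, cetuximab or trametinib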 (primary screen). Cells: HCT15 colorectal cancer cells. Knock-down reagent: siRNA pool against human genes. Challenge: anchor drug or DMSO vehicle added 24 h after seeding: BYL719 1 µM, cetuximab 5 µg/ml, trametinib 10 nM; drug doses chosen to barely affect viability alone. Measurement: 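Replicate-mean viability relative to non-targeting pool control with robust z-score for knock-down without drug; per-drug synergy scores for BYL719 (1 µM), cetuximab (5 µg/ml), trametinib (10 nM)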. Scale: viability z-score, siRNA alone: higher = more viable cells after knock-down; viability vs non-targeting, siRNA alone: higher = more viable cells; synergy score with BYL719: higher = stronger synergy of knock-down with drug. Call rule: 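a knock-down without drug that drives the robust viability z-score under -3 is active, i.e. essential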. Calls: active = essential: knock-down alone lowers viability (z below -3); inactive = no strong viability loss with knock-down alone.
The whole screen tested 794 reagents; this is a random part of them. Of all reagents, 18 (2.3%) got an active call. 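Calls rest on knock-down alone, not drug synergy; depositor treated synergy scores above 0.15 as synergistic; drug doses alone had little viability effect.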 No viability above 1 is reported: the scale is capped. Further read-outs or replicates are left out here. Not stated in the record: the amount of reagent, the time to read-out.

| Target gene | PubChem SID | viability z-score, siRNA alone | viability vs non-targeting, siRNA alone | synergy score with BYL719 | activity call |
| --- | --- | --- | --- | --- | --- |
| BMPR2 (bone morphogenetic protein receptor type 2) | SID135620969 | 0.17 | 0.967 | 0.178 | inactive |
| BMPR1B (bone morphogenetic protein receptor type 1B) | SID56478926 | 0.625 | 1 | 0.166 | inactive |
| IRAK1 (interleukin 1 receptor associated kinase 1) | SID56478862 | 0.625 | 1 | 0.285 | inactive |
| DLG1 (discs large MAGUK scaffold protein 1) | SID152148481 | 0.609 | 0.999 | 0.0691 | inactive |
| STK17B (serine/threonine kinase 17b) | SID56478762 | 0.455 | 0.988 | 0.112 | inactive |
| CDK5R1 (cyclin dependent kinase 5 regulatory subunit 1) | SID135621688 | -1.22 | 0.866 | 0.122 | inactive |
| RPS6KA2 (ribosomal protein S6 kinase A2) | SID135620862 | -3.11 | 0.729 | -0.0499 | active |
| CAMK2N1 (calcium/calmodulin dependent protein kinase II inhibitor 1) | SID152156102 | -0.437 | 0.923 | 0.124 | inactive |
| IDH2 (isocitrate dehydrogenase (NADP(+)) 2) | SID134310230 | 0.0836 | 0.961 | 0.185 | inactive |
| NEK7 (NIMA related kinase 7) | SID56478729 | 0.625 | 1 | 0.123 | inactive |
| TTK (TTK protein kinase) | SID56478775 | -1.18 | 0.869 | 0.0541 | inactive |
| CUL1 (cullin 1) | SID134310265 | 0.546 | 0.994 | 0.281 | inactive |
| EPHA10 (EPH receptor A10) | SID135620971 | 0.625 | 1 | 0.135 | inactive |
| PIK3R2 (phosphoinositide-3-kinase regulatory subunit 2) | SID135620607 | -0.0669 | 0.95 | 0.239 | inactive |
| TGFBR3 (transforming growth factor beta receptor 3) | SID152150530 | 0.625 | 1 | 0.029 | inactive |
| CDK5R2 (cyclin dependent kinase 5 regulatory subunit 2) | SID56479219 | 0.5 | 0.991 | 0.00326 | inactive |
| DAPK3 (death associated protein kinase 3) | SID56478935 | -1.75 | 0.827 | 0.123 | inactive |
| MERTK (MER proto-oncogene, tyrosine kinase) | SID135620626 | 0.625 | 1 | -0.0516 | inactive |
| STK33 (serine/threonine kinase 33) | SID56479053 | 0.318 | 0.978 | 0.112 | inactive |
| DUSP21 (dual specificity phosphatase 21) | SID134312829 | -0.971 | 0.884 | 0.109 | inactive |
| CDKL2 (cyclin dependent kinase like 2) | SID152156267 | 0.299 | 0.976 | 0.235 | inactive |
| PRKCSH (PRKCSH beta subunit of glucosidase II) | SID56479239 | 0.182 | 0.968 | 0.182 | inactive |
| SLK (STE20 like kinase) | SID56478731 | 0.566 | 0.996 | -0.0324 | inactive |
| NEK9 (NIMA related kinase 9) | SID56478903 | 0.625 | 1 | 0.18 | inactive |
| CERT1 (ceramide transporter 1) | SID56479254 | 0.599 | 0.998 | 0.0717 | inactive |
| BRDT (bromodomain testis associated) | SID152149808 | -0.915 | 0.888 | -0.0124 | inactive |
| EXOSC10 (exosome component 10) | SID152152402 | 0.625 | 1 | 0.376 | inactive |
| GSK3A (glycogen synthase kinase 3 alpha) | SID56478467 | 0.625 | 1 | 0.149 | inactive |
| MLKL (mixed lineage kinase domain like pseudokinase) | SID56479010 | -0.956 | 0.885 | 0.0409 | inactive |
| EFNA5 (ephrin A5) | SID152151552 | 0.625 | 1 | 0.264 | inactive |
| PRKX (protein kinase cAMP-dependent X-linked catalytic subunit) | SID152149946 | 0.625 | 1 | 0.0532 | inactive |
| NADK (NAD kinase) | SID152150245 | 0.548 | 0.994 | 0.145 | inactive |
| SCYL1 (SCY1 like pseudokinase 1) | SID152146872 | 0.625 | 1 | 0.0965 | inactive |
| MAP3K14 (mitogen-activated protein kinase kinase kinase 14) | SID135620705 | -0.502 | 0.918 | 0.277 | inactive |
| CDC7 (cell division cycle 7) | SID56478594 | 0.625 | 1 | 0.217 | inactive |
| PIK3C2G | SID152155956 | 0.625 | 1 | 0.179 | inactive |
| FN1 (fibronectin 1) | SID134314553 | 0.625 | 1 | 0.223 | inactive |
| TNK2 (tyrosine kinase non receptor 2) | SID56478482 | 0.625 | 1 | 0.13 | inactive |
| MECOM (MDS1 and EVI1 complex locus) | SID135621208 | 0.297 | 0.976 | 0.23 | inactive |
| PRKCA (protein kinase C alpha) | SID56478672 | 0.625 | 1 | -0.029 | inactive |
| PIK3CD | SID135621250 | 0.625 | 1 | -0.0371 | inactive |
| FER (FER tyrosine kinase) | SID152156672 | 0.625 | 1 | 0.0798 | inactive |
| DYRK4 (dual specificity tyrosine phosphorylation regulated kinase 4) | SID56478859 | 0.625 | 1 | 0.105 | inactive |
| MAP3K13 (mitogen-activated protein kinase kinase kinase 13) | SID56478694 | 0.625 | 1 | 0.157 | inactive |
| PRKACG (protein kinase cAMP-activated catalytic subunit gamma) | SID56478826 | 0.625 | 1 | 0.0861 | inactive |
| KHK (ketohexokinase) | SID135621242 | 0.625 | 1 | 0.0143 | inactive |
| BRD3 (bromodomain containing 3) | SID135620912 | 0.625 | 1 | 0.266 | inactive |
| DAPK2 (death associated protein kinase 2) | SID152156399 | -1.77 | 0.826 | 0.00701 | inactive |
| POLR2B (RNA polymerase II subunit B) | SID134315545 | -5.56 | 0.55 | 0.138 | active |
| PI4K2A (phosphatidylinositol 4-kinase type 2 alpha) | SID135621249 | 0.625 | 1 | 0.187 | inactive |

Not a retest: 2 of the entries above.
| Target gene | PubChem SID | viability z-score, siRNA alone | viability vs non-targeting, siRNA alone | synergy score with BYL719 | activity call |
| --- | --- | --- | --- | --- | --- |
| EPHA10 (EPH receptor A10) | SID135620971 | 0.625 | 1 | 0.135 | inactive |
| PIK3R2 (phosphoinositide-3-kinase regulatory subunit 2) | SID135620607 | -0.0669 | 0.95 | 0.239 | inactive |
